Here are results for one compound from patent EP3225590A1 (Université de Strasbourg, priority 2016, dated 2017).

A value given as a limit tells only on which side of the number the result lay.

One assay has as its target ANR-L1. The assay can be described thus: Fluorescence titration of ANR-L1 suspension with analyte, 1:1 single-site binding fit. To be noted: 10 mM HEPES buffer (pH 7.3), ANR 250 µg/mL; >> = less than 10% change in emission intensity at >50 molar excess of analyte; error less than ±20%.
The target of another assay is ANR-Y1. Kind of assay: Fluorescence titration of ANR-Y1 suspension with analyte, 1:1 single-site binding fit. Particulars: 10 mM HEPES buffer (pH 7.3), ANR 250 µg/mL; >> = less than 10% change in emission intensity at >50 molar excess of analyte; error less than ±20%.

Broadly, the Kd is the concentration at which binding is half-saturated. The low end stands for tighter binding, the high end for weaker binding. As to `CC(C)NCC(O)COc1cccc2ccccc12` (centres unmarked) [propranolol], the Kd at ANR-L1 and on ANR-Y1 was greater than 1 mM each time.
